Data taken from ChEMBL document CHEMBL3988442, “University of Dundee, Small-Polar-MMV Screening Library” (2021).

Amino acid sequences for entries named in this document (tags omitted).
UniProt E9BF75, entry or part of it: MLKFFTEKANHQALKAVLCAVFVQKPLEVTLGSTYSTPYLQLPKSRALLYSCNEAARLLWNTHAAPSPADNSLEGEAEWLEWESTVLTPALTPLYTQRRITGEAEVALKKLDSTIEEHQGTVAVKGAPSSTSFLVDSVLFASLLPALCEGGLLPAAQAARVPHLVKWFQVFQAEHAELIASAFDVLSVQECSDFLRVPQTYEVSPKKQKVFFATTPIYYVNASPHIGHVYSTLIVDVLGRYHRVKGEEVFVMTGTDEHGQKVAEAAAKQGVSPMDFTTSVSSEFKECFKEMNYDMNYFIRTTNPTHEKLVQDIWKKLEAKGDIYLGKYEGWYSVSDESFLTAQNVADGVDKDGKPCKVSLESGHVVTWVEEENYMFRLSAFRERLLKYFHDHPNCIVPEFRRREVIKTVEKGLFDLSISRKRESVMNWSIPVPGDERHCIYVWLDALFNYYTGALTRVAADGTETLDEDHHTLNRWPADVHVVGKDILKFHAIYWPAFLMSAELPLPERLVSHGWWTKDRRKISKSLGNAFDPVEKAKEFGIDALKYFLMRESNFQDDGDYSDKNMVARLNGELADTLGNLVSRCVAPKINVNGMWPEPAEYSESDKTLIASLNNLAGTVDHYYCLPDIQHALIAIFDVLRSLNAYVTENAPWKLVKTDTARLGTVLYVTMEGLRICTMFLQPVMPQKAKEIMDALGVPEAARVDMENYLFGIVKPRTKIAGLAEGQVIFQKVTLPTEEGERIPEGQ

Results are percentages, as filed. The controls that fix the scale are not given in the record; negative values are as filed. The compounds are a random part of those screened. Two or more numbers in one place are separate tests of the same structure; such repeats can differ widely.

A: 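Assay on Mycobacterium tuberculosis, filed only as a heat shock assay from Cornell; the read-out is not stated. The concentration is filed as 10 mM, unlikely as a test dose, so the dose is not known. Higher reads as stronger inhibition (inferred: compounds with an IC50 in retests scored well above the rest). Of about 69,000 compounds tested this way, about 930 (1.4%) reached 50% or more in at least one test.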
B: 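Methionyl-tRNA synthetase (putative), Leishmania donovani (UniProt E9BF75). Primary screen of methionyl-tRNA synthetase; the read-out is not stated. The test concentration is not given. The values are filed as inhibition. About 68,000 compounds were tested under these conditions; 0.035% (about 24) showed 50% or more at least once.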
C: 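Whole-cell assay for inhibitors of Mycobacterium tuberculosis growth, labelled Cornell in the record; the read-out is not stated. The concentration is filed as 10 mM, unlikely as a test dose, so the dose is not known. Higher means stronger inhibition (inferred from two other growth screens of the library). About 53,000 compounds were tested under these conditions; 1.7% (about 900) showed 50% or more at least once.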

Result for COc1ccc(Cn2c(CCc3c(C)n[nH]c3C)n[nH]c2=O)cc1 was A: -10.52%; B: 10.45%; C: 33.51%.
Result for Cc1cc(C)nc(N2CCC(C(=O)Nc3n[nH]c(CC(C)C)n3)CC2)n1 was A: 6.722%; B: 13.5%; C: 44.43%.
Result for Cc1nn2c(=O)/c(=C\c3cccs3)sc2nc1=O was A: 16.15%; B: 5.263%; C: 10.56%.
Result for CN(C)CC(=O)N1CCCC2(CCN(c3ccccc3)C2=O)C1.O=C(O)C(F)(F)F (stereo not shown) was A: -6.731%; C: 5.366%.
Result for COc1cccc(CN2CCN(C(=O)Nc3nc(C)ns3)CC2=O)c1 was A: 28.78%; B: 7.143%.
Result for O=C(O)C(F)(F)F.[H][C@@]12CN(C)C[C@]1(C(=O)N(C)C)CCC21CCN(S(=O)(=O)CC)CC1 was A: 25.18%; C: -2.392%.
Result for O=C(COCC1CC1)Nc1ncn(CC(=O)N2CCCCCC2)n1 was A: 20.16%; B: 6.842%.
Result for CCOc1cccc2c1OCC(C(=O)NS(=O)(=O)Cc1ccccc1)=C2 was A: 37.84%; B: 8.497%; C: 106.8%.
Result for O=C(O)C(F)(F)F.[H][C@]12CC[C@@]3(N=C(C)N(CC4CC4)C3=O)[C@@]1([H])CN(Cc1ccccc1C)C2 was A: -16.08%; C: 5.076%.
Result for COc1ccc(NC(=O)N(CCO)Cc2ccsc2)cc1 was A: 5.671%; B: -5.707%; C: 9.56%.
Result for COCCn1cc(C(=O)N2CCCC2c2cc(C)no2)ccc1=O (stereo not shown) was A: 1.747%; B: 14.13%.
Result for O=C(O)C(F)(F)F.O=C(O)C(F)(F)F.c1cncc(N2CCCC3(CN(Cc4cccs4)CCO3)C2)c1 (stereo not shown) was A: -18.25%; C: -21.18%.
Result for CS(=O)(=O)c1ccc(CNc2nccc(C(F)(F)F)n2)cc1 was A: 3.542%; B: 11.35%.
Result for OC1CCN(C2CCN(Cc3cccc(Cn4cccn4)c3)CC2)CC1 was A: -16.55%; B: 7.358%; C: 11.72%.
Result for Cc1nc(N2CCCC2)nc2c1CN(C(=O)c1ccco1)CC2 was A: -1.653%; B: -6.767%; C: 10.24%.
Result for CC1=Nc2c(c(=O)[nH]n2C2CCCC2)C(c2ccc(C(=O)O)cc2)S1 (stereo not shown) was A: -1.888% and 30.13%; B: 13.18% and 17.54%; C: 4.419% and 34.87%.
Result for CCn1c(C)cc(-c2csc(Cn3ccc(=O)[nH]c3=O)n2)c1C was A: -13.22%; B: 16.23%; C: 12.98%.
Result for CC(C)c1nnc(NC(=O)CN2C(=O)c3ccccc3NC2C(C)C)s1 (stereo not shown) was A: 1.321%; B: 18.59%; C: 42.57%.
Result for O=C(O)C(F)(F)F.O=C(O)C(F)(F)F.O=C(O)C(F)(F)F.[H][C@@]12CCN(Cc3ccccn3)C[C@]1(C(=O)NCc1ccccn1)CCO2 was A: 19.83%; C: -14.31%.
Result for CCc1nnc(Nc2cccc(C3CCN(C(=O)CO)CC3)n2)s1 was A: -3.447%; B: 12.94%; C: -16.23%.
Result for O=C(O)c1ncccc1OCC(F)(F)F was A: -4.684%; B: 14.49%; C: -8.122%.

Repeated from the top, 2 entries:

{"compound": "COc1ccc(Cn2c(CCc3c(C)n[nH]c3C)n[nH]c2=O)cc1", "A": -10.52, "B": 10.45, "C": 33.51}
{"compound": "Cc1cc(C)nc(N2CCC(C(=O)Nc3n[nH]c(CC(C)C)n3)CC2)n1", "A": 6.722, "B": 13.5, "C": 44.43}